Values from PubChem BioAssay AID602196 (INSERM, 2012)

- Purpose: 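Genes whose knock-down alters cisplatin killing of lung cancer cells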
- System: human A549 lung cancer cells
- Reagent: siRNA pair against human genes
- Timing: 48 h transfection before cisplatin; time from cisplatin to read-out not stated
- Challenge: cisplatin at a dose killing half of control-siRNA cells; exact dose and duration not given
- Read-out: 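Cisplatin cell death as a shift from the 50% death seen with control siRNA; siRNAs toxic or growth-blocking alone scored 0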
- Direction: two-siRNA summed score (-2 to +2): higher = both siRNAs protect from cisplatin killing; -2 means both sensitise; mean protection from cisplatin (shift in death): higher = protection from cisplatin killing
- Call rule: 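Each siRNA scores 0 if harmful alone by LDH or WST-1, otherwise +1 if it reduces and -1 if it increases cisplatin killing; a gene is active when both siRNAs agree (sum +2 or -2)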
- Meaning of the calls: active = both siRNAs shift cisplatin killing the same way; inactive = no consistent shift, or siRNA harmful alone
Here is one part, drawn at random, of about 23,000 reagents. In the full data, 455 (2%) were called active. 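Active includes both protection and sensitisation; some change values fall well beyond the stated -50 to +50 range.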 Further read-outs or replicates are left out here. No sequences are given here. Not stated in the record: the amount of reagent.

After knock-down of TRABD2B, the record shows two-siRNA summed score (-2 to +2) = 0; mean protection from cisplatin (shift in death) (%) = 8.1; inactive.
For TIAM2, the entry reads two-siRNA summed score (-2 to +2) = 0; mean protection from cisplatin (shift in death) (%) = -12.8; inactive.
Depletion of MBD3 gave: two-siRNA summed score (-2 to +2) = 0; mean protection from cisplatin (shift in death) (%) = -15.9; inactive.
After knock-down of RAB18, the screen gave two-siRNA summed score (-2 to +2) = -1; mean protection from cisplatin (shift in death) (%) = -9.5; inactive.
TYW1 gave two-siRNA summed score (-2 to +2) = 0; mean protection from cisplatin (shift in death) (%) = 6; inactive.
Silencing of PPP1R11 came out at: two-siRNA summed score (-2 to +2) = 0; mean protection from cisplatin (shift in death) (%) = 4.9; inactive.
Silencing of TEDAR resulted in: two-siRNA summed score (-2 to +2) = 0; mean protection from cisplatin (shift in death) (%) = -7.8; inactive.
Against PHF23 the deposit lists two-siRNA summed score (-2 to +2) = 0; mean protection from cisplatin (shift in death) (%) = 10.1; inactive.
Silencing of KIAA2025 came out at: two-siRNA summed score (-2 to +2) = 0; mean protection from cisplatin (shift in death) (%) = -1.8; inactive.
ARHGEF35 showed two-siRNA summed score (-2 to +2) = 0; mean protection from cisplatin (shift in death) (%) = 2.6; inactive.
After knock-down of REG3A, the record shows two-siRNA summed score (-2 to +2) = 0; mean protection from cisplatin (shift in death) (%) = -6.6; inactive.
EPS8L2 gave two-siRNA summed score (-2 to +2) = -1; mean protection from cisplatin (shift in death) (%) = -16.9; inactive.

2 entries from above, sorted by “two-siRNA summed score (-2 to +2)”, lowest first:
RAB18: two-siRNA summed score (-2 to +2) = -1; mean protection from cisplatin (shift in death) (%) = -9.5; Call = inactive
MBD3: two-siRNA summed score (-2 to +2) = 0; mean protection from cisplatin (shift in death) (%) = -15.9; Call = inactive
